No constants are given. Whether binding was seen depends on the method and setting. Some binding calls cover weakened binding; strength is not graded here.
Tests used:
[1] = target: human KIR3DL2 (CD158k), wild type, at the cell surface (human) (UniProt P43630); assay: flow cytometry on live HUT78 cells, staining in RPMI10% at 37°C or 4°C for 2, 4 or 24 h, detection with anti-human-Fc PE, median of fluorescence
[2] = target: human KIR3DL2 (CD158k), wild type, at the cell surface (human) (UniProt P43630); assay: flow cytometry on HUT78 cells, dose range 0.0005-30 µg/ml, anti-human-Fc PE
[3] = target: human KIR3DL2 (CD158k), wild type, at the cell surface (human) (UniProt P43630); assay: flow cytometry on HUT78 cells after 20 h incubation
[4] = target: human KIR3DL2 (CD158k), wild type, at the cell surface (human) (UniProt P43630); assay: flow cytometry on HUT78 cells after 1, 24 or 48 h at 37°C with 2B12; bound antibody detected with goat anti-human IgG Fc-PE, free KIR3DL2 detected with 2B12-PE at 10 µg/ml
[5] = target: human KIR3DL2 (CD158k), wild type, at the cell surface (human) (UniProt P43630); assay: flow cytometry on HUT78 cells, 1, 24 or 48 h
[6] = target: human KIR3DL2 (CD158k), wild type, at the cell surface (human) (UniProt P43630); assay: flow cytometry on HUT78 cells, anti-human-Fc PE
[7] = target: human KIR3DL2 (CD158k), wild type, at the cell surface (human) (UniProt P43630); assay: flow cytometry on HUT78 cells after 20 h at 37°C with the antibody; bound antibody detected with goat anti-human IgG Fc-PE, free KIR3DL2 detected with PE-labelled 2B12 (IPH4102-PE on the sheet) at 10 µg/ml
[8] = target: human KIR3DL2 (CD158k), wild type, at the cell surface (human) (UniProt P43630); assay: flow cytometry on HUT78 cells after 20 h incubation at 37° C.

The chains behind the UniProt entries cited, without tags or fusion partners. Where a name states a change or a piece, a line headed by the entry shows the natural chain unless it says otherwise.
UniProt P43630: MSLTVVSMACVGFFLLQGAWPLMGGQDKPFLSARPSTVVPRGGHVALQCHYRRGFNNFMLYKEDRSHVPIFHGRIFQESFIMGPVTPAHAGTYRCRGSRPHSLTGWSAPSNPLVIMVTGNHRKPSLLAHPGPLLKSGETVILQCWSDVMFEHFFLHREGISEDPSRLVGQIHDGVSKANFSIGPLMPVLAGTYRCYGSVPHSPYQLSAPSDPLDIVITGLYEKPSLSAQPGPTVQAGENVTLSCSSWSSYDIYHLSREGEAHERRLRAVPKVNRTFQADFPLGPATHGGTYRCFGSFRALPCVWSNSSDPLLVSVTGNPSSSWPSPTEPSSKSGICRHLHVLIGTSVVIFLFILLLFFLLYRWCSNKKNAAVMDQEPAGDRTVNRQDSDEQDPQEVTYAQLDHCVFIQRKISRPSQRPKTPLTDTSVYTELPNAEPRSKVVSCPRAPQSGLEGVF

binding [1]: binds
binding [2]: binds
binding [3]: binds
binding [4]: binds
binding [5]: binds
binding [6]: binds
binding [7]: binds
binding [8]: binds
B1: antibody 2B12 (human IgG1) (antibody, V domains shown)
VH: QIQLVQSGPELKKPGETVRISCKASGYTFTTAGMQWVQKTPGKGLKWIGWINSHSGVPKYAEDFKGRFAFSLETSASTAYLQISTLKNEDTATYFCARGGDEGVMDYWGQGTSVTVS
VL: DIVMTQSHKFMSTSLGDRVSFTCKASQDVSTAVAWYQQKPGQSPKLLIYWTSTRHTGVPDRFTGSGSGTDYTLTISSVQAEDLALYYCQQHYSTPWTFGGGTKLEIK

Reference: patent US20210087270A1
